These are yes or no findings as the source states them, for the method shown. In cells and extracts the contact can be indirect. Some entries that bind do so weakly or less than the wild type.
Target: Integrin alpha 2 (human (endogenous in PANC-1 and AsPC-1)) (UniProt P17301)
Assay: co-IP; RIPA lysates of PANC-1 and AsPC-1 cells, incubated overnight at 4 °C with agarose beads having antibodies; Western blot

Sequences of proteins named here, by UniProt entry; tags and fusion partners are left off. Residues count along the entry.
UniProt P17301, residues 30-1181: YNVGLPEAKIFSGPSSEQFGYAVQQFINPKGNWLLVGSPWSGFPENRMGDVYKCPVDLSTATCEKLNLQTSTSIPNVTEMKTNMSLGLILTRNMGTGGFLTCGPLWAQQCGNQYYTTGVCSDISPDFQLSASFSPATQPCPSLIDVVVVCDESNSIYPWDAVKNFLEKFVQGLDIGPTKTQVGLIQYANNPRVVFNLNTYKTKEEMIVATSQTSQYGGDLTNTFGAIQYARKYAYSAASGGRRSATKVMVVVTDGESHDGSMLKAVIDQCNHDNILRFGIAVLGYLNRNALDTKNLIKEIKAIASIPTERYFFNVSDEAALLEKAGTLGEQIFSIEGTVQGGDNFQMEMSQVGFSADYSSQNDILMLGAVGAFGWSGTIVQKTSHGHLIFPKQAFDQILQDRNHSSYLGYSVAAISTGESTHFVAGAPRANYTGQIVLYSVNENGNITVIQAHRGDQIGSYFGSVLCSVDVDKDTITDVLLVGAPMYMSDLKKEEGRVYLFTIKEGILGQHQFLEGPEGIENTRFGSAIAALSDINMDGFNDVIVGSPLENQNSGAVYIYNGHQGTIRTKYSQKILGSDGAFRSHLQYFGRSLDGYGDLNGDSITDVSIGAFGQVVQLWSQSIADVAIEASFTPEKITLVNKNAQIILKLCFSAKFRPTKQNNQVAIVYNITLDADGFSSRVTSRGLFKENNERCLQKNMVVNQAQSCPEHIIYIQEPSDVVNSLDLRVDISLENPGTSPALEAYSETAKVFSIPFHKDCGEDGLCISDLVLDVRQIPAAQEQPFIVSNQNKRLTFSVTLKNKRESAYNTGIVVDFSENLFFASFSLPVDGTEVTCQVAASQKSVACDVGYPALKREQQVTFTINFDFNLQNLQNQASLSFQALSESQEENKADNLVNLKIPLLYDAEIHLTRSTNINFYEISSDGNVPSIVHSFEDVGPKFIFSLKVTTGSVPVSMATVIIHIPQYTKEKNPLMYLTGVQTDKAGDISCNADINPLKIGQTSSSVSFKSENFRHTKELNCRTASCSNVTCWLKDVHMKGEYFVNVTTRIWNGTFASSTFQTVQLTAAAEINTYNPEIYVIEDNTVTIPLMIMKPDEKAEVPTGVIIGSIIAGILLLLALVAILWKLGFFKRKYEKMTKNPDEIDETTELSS

binding: binds
B1: Transcription factor CP2 (protein, UniProt Q12800 1-502)
chain: MAWALKLPLADEVIESGLVQDFDASLSGIGQELGAGAYSMSDVLALPIFKQEESSLPPDNENKILPFQYVLCAATSPAVKLHDETLTYLNQGQSYEIRMLDNRKLGELPEINGKLVKSIFRVVFHDRRLQYTEHQQLEGWRWNRPGDRILDIDIPMSVGIIDPRANPTQLNTVEFLWDPAKRTSVFIQVHCISTEFTMRKHGGEKGVPFRVQIDTFKENENGEYTEHLHSASCQIKVFKPKGADRKQKTDREKMEKRTPHEKEKYQPSYETTILTECSPWPEITYVNNSPSPGFNSSHSSFSLGEGNGSPNHQPEPPPPVTDNLLPTTTPQEAQQWLHRNRFSTFTRLFTNFSGADLLKLTRDDVIQICGPADGIRLFNALKGRMVRPRLTIYVCQESLQLREQQQQQQQQQQKHEDGDSNGTFFVYHAIYLEELTAVELTEKIAQLFSISPCQISQIYKQGPTGIHVLISDEMIQNFQEEACFILDTMKAETNDSYHIILK

— PMC8862343
